This is one part of the list.
Legend:
Experiment in all cases: log2 fold change, soluble protein after heating vs DMSO (PISA); higher = thermal stabilisation; K562 lysate, 10 uM; active = over 0.2 and 3.5 SD of the protein, either way, in both replicates (recomputed)
lapatinib = compound: CS(=O)(=O)CCNCc1ccc(-c2ccc3ncnc(Nc4ccc(OCc5cccc(F)c5)c(Cl)c4)c3c2)o1 [lapatinib]
In short: (§1)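 Quantification was by TMTpro 16plex LC-MS/MS with equalised channel sums, applied to the supernatant after 21,000xg for 90 min. Samples were crude K562 extract at 1 mg/mL protein in PBS pH 7.4 with 1 mM MgCl2, treated with 10 μM compound for 30 min, heated for 3 min across 48°C-58°C, pooled and brought to 0.5% NP-40 at 4°C. Values are log-two fold changes in thermal stability relative to solvent controls, from duplicates.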

Chains of the proteins cited; added tags and fusions are not shown. Lines headed by an entry give the natural chain unless they say otherwise; changes in a name come on top.
UniProt Q4V328: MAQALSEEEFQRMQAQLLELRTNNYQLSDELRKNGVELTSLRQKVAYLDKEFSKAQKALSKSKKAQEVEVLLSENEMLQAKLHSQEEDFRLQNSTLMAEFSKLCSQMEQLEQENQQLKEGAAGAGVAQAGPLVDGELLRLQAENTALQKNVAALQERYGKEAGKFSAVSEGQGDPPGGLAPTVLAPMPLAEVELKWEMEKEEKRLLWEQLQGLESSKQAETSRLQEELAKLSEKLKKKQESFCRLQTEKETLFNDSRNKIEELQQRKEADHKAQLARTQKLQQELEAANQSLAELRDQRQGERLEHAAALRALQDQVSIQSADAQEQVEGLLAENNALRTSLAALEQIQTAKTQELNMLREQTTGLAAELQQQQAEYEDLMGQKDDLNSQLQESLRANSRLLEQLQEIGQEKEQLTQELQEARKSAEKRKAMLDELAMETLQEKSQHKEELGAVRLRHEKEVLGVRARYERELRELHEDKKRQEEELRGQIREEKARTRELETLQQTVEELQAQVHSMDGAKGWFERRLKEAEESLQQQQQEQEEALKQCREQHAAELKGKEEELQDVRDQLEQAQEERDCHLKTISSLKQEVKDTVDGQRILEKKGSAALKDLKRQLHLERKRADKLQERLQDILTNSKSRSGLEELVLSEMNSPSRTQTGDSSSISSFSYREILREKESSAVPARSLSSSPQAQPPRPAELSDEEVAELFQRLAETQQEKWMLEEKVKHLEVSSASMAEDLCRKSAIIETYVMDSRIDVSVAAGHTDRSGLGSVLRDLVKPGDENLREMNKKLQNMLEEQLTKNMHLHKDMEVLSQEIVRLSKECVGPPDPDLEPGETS
UniProt P06396, whole entry, looked up: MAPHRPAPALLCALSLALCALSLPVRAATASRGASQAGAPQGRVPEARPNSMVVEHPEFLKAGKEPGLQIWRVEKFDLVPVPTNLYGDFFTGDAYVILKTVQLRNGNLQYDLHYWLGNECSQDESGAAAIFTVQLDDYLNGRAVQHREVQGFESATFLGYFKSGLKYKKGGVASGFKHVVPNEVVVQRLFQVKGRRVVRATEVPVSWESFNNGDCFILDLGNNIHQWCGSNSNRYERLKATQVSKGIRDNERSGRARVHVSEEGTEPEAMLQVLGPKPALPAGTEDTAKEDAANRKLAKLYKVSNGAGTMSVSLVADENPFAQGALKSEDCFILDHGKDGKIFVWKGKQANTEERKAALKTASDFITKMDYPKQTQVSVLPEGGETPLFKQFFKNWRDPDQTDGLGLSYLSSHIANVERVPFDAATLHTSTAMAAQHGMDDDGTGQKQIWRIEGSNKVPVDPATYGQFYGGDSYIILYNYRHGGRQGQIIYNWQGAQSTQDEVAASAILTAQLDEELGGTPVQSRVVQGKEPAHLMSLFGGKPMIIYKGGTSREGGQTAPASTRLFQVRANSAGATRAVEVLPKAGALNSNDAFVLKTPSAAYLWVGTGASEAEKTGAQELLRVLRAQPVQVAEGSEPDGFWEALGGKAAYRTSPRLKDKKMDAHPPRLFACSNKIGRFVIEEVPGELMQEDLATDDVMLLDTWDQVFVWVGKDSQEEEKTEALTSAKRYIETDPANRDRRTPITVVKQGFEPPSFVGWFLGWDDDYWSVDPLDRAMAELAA
UniProt P09105: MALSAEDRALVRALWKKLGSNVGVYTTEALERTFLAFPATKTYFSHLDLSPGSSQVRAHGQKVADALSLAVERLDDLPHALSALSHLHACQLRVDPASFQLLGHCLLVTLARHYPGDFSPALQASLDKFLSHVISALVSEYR
UniProt Q7Z4V5: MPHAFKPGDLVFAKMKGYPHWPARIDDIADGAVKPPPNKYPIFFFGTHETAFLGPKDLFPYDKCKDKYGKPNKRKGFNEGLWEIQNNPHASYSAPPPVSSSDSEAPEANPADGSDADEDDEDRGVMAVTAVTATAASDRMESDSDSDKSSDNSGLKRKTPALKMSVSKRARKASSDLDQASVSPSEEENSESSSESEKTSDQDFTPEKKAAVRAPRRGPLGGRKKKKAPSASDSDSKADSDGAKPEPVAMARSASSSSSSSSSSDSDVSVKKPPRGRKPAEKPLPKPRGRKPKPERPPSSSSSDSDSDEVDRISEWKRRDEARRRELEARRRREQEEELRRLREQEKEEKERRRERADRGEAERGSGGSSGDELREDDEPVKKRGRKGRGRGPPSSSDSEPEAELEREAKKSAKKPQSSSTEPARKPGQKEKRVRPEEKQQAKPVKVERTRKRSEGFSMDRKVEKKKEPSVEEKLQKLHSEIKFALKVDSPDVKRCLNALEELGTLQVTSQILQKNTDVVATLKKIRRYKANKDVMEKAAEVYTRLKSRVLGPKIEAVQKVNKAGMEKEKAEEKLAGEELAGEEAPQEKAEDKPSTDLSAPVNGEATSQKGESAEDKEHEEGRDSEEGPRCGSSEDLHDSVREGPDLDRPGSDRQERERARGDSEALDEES
UniProt P25098: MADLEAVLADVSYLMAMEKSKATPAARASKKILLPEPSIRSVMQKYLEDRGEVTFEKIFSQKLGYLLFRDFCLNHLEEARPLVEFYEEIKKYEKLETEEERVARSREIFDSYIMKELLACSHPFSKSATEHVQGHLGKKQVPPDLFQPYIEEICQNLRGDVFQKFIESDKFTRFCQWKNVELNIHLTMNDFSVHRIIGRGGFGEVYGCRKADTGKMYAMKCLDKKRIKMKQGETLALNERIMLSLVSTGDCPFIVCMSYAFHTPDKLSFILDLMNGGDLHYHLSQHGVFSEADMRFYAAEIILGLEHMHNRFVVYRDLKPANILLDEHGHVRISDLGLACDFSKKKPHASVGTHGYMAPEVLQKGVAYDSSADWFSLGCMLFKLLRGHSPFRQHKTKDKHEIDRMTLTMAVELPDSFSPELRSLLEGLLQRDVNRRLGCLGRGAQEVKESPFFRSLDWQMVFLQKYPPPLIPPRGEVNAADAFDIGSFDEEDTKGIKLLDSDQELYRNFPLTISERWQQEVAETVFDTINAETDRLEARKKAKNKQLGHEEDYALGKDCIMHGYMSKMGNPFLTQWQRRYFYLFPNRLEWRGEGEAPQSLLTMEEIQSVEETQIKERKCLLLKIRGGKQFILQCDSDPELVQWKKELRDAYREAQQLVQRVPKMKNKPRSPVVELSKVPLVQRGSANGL
UniProt Q9Y5Q8: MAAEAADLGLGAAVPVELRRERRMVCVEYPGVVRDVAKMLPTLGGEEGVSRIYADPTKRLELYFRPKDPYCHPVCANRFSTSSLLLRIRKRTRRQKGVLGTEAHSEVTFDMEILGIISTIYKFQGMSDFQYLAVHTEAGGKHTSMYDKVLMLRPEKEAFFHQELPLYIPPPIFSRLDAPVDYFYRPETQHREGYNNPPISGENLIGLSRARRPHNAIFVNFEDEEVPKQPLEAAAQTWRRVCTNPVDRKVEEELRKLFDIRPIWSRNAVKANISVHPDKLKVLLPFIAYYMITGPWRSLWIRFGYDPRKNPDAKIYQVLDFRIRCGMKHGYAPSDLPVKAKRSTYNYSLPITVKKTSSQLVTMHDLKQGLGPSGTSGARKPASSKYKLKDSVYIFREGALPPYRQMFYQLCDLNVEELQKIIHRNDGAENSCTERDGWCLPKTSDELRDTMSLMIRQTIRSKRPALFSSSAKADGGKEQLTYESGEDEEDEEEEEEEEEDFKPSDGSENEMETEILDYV
UniProt Q13322: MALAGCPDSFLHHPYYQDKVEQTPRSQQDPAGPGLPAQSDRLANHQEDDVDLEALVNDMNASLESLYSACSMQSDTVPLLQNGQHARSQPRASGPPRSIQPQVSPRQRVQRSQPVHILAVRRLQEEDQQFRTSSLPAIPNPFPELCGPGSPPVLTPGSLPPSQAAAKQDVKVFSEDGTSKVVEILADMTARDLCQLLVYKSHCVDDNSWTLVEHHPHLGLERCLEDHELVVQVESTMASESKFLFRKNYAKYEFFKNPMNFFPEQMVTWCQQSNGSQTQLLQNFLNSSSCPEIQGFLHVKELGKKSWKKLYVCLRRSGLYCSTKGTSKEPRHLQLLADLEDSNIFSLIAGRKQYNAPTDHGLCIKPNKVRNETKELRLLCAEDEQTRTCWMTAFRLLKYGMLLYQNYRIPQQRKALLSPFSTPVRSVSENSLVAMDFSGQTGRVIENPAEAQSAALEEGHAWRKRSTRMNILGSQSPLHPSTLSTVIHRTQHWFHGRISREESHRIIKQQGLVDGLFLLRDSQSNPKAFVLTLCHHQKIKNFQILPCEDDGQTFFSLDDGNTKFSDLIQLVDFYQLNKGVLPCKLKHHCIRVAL
UniProt P02042: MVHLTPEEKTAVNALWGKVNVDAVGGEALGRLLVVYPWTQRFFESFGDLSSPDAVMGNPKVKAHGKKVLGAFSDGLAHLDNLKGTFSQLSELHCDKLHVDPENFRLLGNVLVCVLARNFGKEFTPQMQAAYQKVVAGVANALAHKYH
UniProt Q12789: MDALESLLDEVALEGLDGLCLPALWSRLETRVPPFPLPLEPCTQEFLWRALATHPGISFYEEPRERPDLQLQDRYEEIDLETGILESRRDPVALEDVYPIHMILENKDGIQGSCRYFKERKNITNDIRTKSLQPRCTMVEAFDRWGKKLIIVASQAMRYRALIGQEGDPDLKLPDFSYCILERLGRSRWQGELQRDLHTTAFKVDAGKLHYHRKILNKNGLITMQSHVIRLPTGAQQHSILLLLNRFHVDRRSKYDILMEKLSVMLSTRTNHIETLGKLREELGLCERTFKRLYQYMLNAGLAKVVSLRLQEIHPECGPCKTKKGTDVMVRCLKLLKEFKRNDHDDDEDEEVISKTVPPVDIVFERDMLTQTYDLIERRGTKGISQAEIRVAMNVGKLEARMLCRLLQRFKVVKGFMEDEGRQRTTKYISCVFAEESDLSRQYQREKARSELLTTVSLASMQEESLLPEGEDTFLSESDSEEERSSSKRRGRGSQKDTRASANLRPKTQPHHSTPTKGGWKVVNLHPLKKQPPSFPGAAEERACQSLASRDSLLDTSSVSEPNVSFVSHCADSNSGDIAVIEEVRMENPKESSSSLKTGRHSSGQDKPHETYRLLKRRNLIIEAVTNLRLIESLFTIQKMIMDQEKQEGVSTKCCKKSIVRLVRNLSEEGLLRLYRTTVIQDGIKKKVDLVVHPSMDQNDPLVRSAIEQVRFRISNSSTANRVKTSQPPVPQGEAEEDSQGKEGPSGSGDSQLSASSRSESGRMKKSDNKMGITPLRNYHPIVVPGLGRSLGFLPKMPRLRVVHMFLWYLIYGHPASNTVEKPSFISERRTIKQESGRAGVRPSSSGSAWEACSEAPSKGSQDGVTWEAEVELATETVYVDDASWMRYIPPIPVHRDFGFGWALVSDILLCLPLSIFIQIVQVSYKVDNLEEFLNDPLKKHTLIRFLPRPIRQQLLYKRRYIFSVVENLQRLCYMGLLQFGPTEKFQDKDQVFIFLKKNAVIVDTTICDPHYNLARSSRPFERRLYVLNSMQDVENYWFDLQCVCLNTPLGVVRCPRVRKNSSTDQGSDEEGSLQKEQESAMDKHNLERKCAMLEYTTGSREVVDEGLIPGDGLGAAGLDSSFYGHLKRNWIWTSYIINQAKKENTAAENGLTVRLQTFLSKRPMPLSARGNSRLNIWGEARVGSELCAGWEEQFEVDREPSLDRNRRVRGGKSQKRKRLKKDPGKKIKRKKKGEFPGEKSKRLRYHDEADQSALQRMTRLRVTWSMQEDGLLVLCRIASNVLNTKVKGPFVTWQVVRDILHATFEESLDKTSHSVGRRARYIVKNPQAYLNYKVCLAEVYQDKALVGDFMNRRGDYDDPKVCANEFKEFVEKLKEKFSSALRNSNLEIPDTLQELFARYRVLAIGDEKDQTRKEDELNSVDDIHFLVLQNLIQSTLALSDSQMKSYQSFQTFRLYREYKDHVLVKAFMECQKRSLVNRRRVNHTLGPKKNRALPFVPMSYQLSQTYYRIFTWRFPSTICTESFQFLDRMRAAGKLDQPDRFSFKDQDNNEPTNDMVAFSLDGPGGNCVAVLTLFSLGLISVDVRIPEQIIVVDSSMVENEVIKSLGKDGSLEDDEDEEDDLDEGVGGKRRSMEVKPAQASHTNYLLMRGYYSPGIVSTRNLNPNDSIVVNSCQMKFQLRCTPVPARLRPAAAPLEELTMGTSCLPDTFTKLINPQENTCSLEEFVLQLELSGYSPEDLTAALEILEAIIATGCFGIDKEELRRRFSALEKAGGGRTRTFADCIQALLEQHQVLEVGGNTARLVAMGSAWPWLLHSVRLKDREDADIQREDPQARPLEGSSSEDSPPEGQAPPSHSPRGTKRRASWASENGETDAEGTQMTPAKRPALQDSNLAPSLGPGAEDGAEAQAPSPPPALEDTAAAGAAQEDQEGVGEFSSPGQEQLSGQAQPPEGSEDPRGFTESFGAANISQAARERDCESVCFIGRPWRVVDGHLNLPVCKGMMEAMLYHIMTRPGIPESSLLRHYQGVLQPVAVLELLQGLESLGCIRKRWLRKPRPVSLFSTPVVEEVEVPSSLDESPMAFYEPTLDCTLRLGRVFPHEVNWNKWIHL

pictilisib = compound: CS(=O)(=O)N1CCN(Cc2cc3nc(-c4cccc5[nH]ncc45)nc(N4CCOCC4)c3s2)CC1 [pictilisib]
In short: as §1

crizotinib = compound: C[C@@H](Oc1cc(-c2cnn(C3CCNCC3)c2)cnc1N)c1c(Cl)ccc(F)c1Cl [crizotinib]
In short: as §1

[1] = compound: C[C@H](C1=CC=C(C=C1)C(=O)NC2=C3C=CNC3=NC=C2)N
In short: as §1

duvelisib = compound: C[C@H](Nc1ncnc2nc[nH]c12)c1cc2cccc(Cl)c2c(=O)n1-c1ccccc1 [duvelisib]
In short: as §1

gandotinib = compound: Cc1cc(Nc2cc(CN3CCOCC3)c3nc(C)c(Cc4ccc(Cl)cc4F)n3n2)n[nH]1 [gandotinib]
In short: as §1

tozasertib = compound: Cc1cc(Nc2cc(N3CCN(C)CC3)nc(Sc3ccc(NC(=O)C4CC4)cc3)n2)n[nH]1 [tozasertib]
In short: as §1

doramapimod = compound: Cc1ccc(-n2nc(C(C)(C)C)cc2NC(=O)Nc2ccc(OCCN3CCOCC3)c3ccccc23)cc1 [doramapimod]
In short: as §1

bafetinib = compound: Cc1ccc(NC(=O)c2ccc(CN3CC[C@H](N(C)C)C3)c(C(F)(F)F)c2)cc1Nc1nccc(-c2cncnc2)n1 [bafetinib]
In short: as §1

[2] = compound: Cc1cccc(CC(=O)N2CCc3c2ccc(-c2cn(C)c4ncnc(N)c24)c3F)n1
In short: as §1

Row | Target | log2 fold change (lapatinib) | log2 fold change (pictilisib) | log2 fold change (crizotinib) | log2 fold change [1] | log2 fold change (duvelisib) | log2 fold change (gandotinib) | log2 fold change (tozasertib) | log2 fold change (doramapimod) | log2 fold change (bafetinib) | log2 fold change [2]
1 | HACL1 (UniProt Q9UJ83) | inactive: -0.05 | inactive: 0.005 | inactive: 0.01 | inactive: 0.005 | inactive: 0.023 | inactive: 0.003 | inactive: -0.019 | inactive: -0.05 | inactive: -0.013 | inactive: -0.046
2 | GTF2F2 (UniProt P13984) | inactive: -0.011 | inactive: 0.016 | inactive: 0.002 | inactive: -0.053 | inactive: -0.021 | inactive: 0.061 | inactive: 0.002 | inactive: -0.016 | inactive: -0.003 | inactive: 0.018
3 | GTSF1 (UniProt Q8WW33) | inactive: 0.028 | inactive: -0.033 | inactive: 0.037 | inactive: 0.03 | inactive: -0.092 | inactive: 0.041 | inactive: 0.021 | inactive: 0.033 | inactive: 0.03 | inactive: -0.027
4 | GRIPAP1 (UniProt Q4V328) | inactive: 0.033 | inactive: -0.008 | inactive: 0.025 | inactive: 0.094 | inactive: 0.019 | inactive: -0.013 | inactive: -0.044 | inactive: -0.003 | inactive: -0.014 | inactive: -0.07
5 | HAUS6 (UniProt Q7Z4H7) | inactive: 0.001 | inactive: -0.028 | inactive: -0.029 | inactive: -0.054 | inactive: 0.006 | inactive: -0.041 | inactive: 0.046 | inactive: -0.009 | inactive: 0.051 | inactive: 0.104
6 | GSN (UniProt P06396) | inactive: 0.044 | inactive: 0 | inactive: -0.01 | inactive: -0.021 | inactive: -0.009 | inactive: 0.018 | inactive: -0.035 | inactive: 0.035 | inactive: -0.037 | inactive: 0.058
7 | HDGF (UniProt P51858) | inactive: 0.02 | inactive: 0 | inactive: 0.016 | inactive: 0.079 | inactive: 0.003 | inactive: -0.033 | inactive: 0.023 | inactive: -0.021 | inactive: 0.03 | inactive: -0.068
8 | GSTM3 (UniProt P21266) | inactive: -0.045 | inactive: -0.004 | inactive: 0.078 | inactive: 0.007 | inactive: 0.027 | inactive: -0.143 | inactive: -0.035 | inactive: -0.034 | inactive: -0.075 | inactive: -0.036
9 | H2AFY (UniProt O75367) | inactive: -0.021 | inactive: 0.036 | inactive: 0.051 | inactive: -0.135 | inactive: 0.01 | inactive: 0.084 | inactive: -0.108 | inactive: -0.138 | inactive: -0.011 | inactive: 0.049
10 | HDAC2 (UniProt Q92769) | inactive: -0.006 | inactive: 0.002 | inactive: 0.057 | inactive: -0.047 | inactive: -0.028 | inactive: 0.018 | inactive: 0.014 | inactive: -0.05 | inactive: -0.021 | inactive: 0.028
11 | HDDC3 (UniProt Q8N4P3) | inactive: 0.013 | inactive: 0 | inactive: 0.046 | inactive: -0.017 | inactive: -0.008 | inactive: -0.037 | inactive: -0.003 | inactive: 0.023 | inactive: -0.132 | inactive: -0.04
12 | GRPEL1 (UniProt Q9HAV7) | inactive: -0.031 | inactive: 0.002 | inactive: 0.021 | inactive: -0.039 | inactive: 0.006 | inactive: 0.024 | inactive: 0.001 | inactive: -0.028 | inactive: 0.018 | inactive: 0.014
13 | HBQ1 (UniProt P09105) | inactive: 0.09 | inactive: -0.03 | inactive: -0.033 | inactive: 0.013 | inactive: 0.008 | inactive: -0.082 | inactive: 0.058 | inactive: -0.031 | inactive: -0.013 | inactive: 0.005
14 | H2AFX (UniProt P16104) | inactive: 0.039 | inactive: 0.027 | inactive: -0.054 | inactive: -0.035 | inactive: -0.006 | inactive: 0.011 | inactive: 0.013 | inactive: 0.018 | inactive: 0.048 | inactive: 0.098
15 | HDAC10 (UniProt Q969S8) | inactive: -0.101 | inactive: -0.019 | inactive: -0.015 | inactive: -0.042 | inactive: -0.014 | inactive: 0.029 | inactive: 0.068 | inactive: -0.046 | inactive: 0.035 | inactive: 0.061
16 | GTF3C3 (UniProt Q9Y5Q9) | inactive: -0.043 | inactive: -0.051 | inactive: -0.093 | inactive: -0.108 | inactive: 0.017 | inactive: -0.037 | inactive: 0.009 | inactive: 0.012 | inactive: -0.045 | inactive: 0.084
17 | HDDC2 (UniProt Q7Z4H3) | inactive: -0.014 | inactive: -0.042 | inactive: 0.023 | inactive: -0.002 | inactive: -0.022 | inactive: -0.028 | inactive: -0.01 | inactive: 0.004 | inactive: 0.053 | inactive: -0.04
18 | HEATR1 (UniProt Q9H583) | inactive: -0.012 | inactive: 0.012 | inactive: -0.064 | inactive: -0.027 | inactive: 0.059 | inactive: -0.094 | inactive: -0.001 | inactive: 0.015 | inactive: -0.028 | inactive: 0.125
19 | H4C1 (UniProt P62805) | inactive: -0.043 | inactive: -0.069 | inactive: 0.032 | inactive: 0.003 | inactive: -0.16 | inactive: 0 | inactive: -0.027 | inactive: 0.006 | inactive: 0.059 | inactive: -0.044
20 | UniProt H0YHG0 | inactive: 0.028 | inactive: 0.017 | inactive: 0.027 | inactive: -0.104 | inactive: 0.024 | inactive: 0.08 | inactive: -0.002 | inactive: 0.004 | inactive: -0.012 | inactive: 0.031
21 | GSK3B isoform 2 (UniProt P49841) | inactive: -0.083 | inactive: 0.191 | inactive: 0.003 | inactive: 0.018 | inactive: -0.02 | inactive: 0.59 | inactive: -0.078 | inactive: 0.03 | inactive: -0.041 | inactive: -0.06
22 | HCFC1 isoform 4 (UniProt P51610) | inactive: 0.003 | inactive: 0.011 | inactive: 0.023 | inactive: -0.02 | inactive: -0.002 | inactive: 0.04 | inactive: -0.019 | inactive: 0.001 | inactive: -0.005 | inactive: -0.017
23 | HDGFL2 isoform 2 (UniProt Q7Z4V5) | inactive: 0.02 | inactive: 0.027 | inactive: -0.028 | active: -0.348 | inactive: 0.037 | active: 0.248 | inactive: 0.018 | inactive: -0.003 | inactive: 0 | inactive: 0.167
24 | GRK2 (UniProt P25098) | inactive: -0.063 | inactive: 0.015 | inactive: -0.038 | inactive: 0.024 | inactive: 0.017 | inactive: 0.077 | inactive: -0.02 | inactive: 0.033 | inactive: -0.017 | inactive: -0.035
25 | HCLS1 (UniProt P14317) | inactive: -0.013 | inactive: 0.009 | inactive: 0.073 | inactive: 0.026 | inactive: 0.002 | inactive: -0.001 | inactive: 0.009 | inactive: 0.008 | inactive: 0.032 | inactive: -0.044
26 | GTF3C5 isoform 3 (UniProt Q9Y5Q8) | inactive: -0.009 | inactive: -0.01 | inactive: -0.047 | inactive: -0.014 | inactive: -0.02 | inactive: -0.002 | inactive: -0.012 | inactive: 0.063 | inactive: -0.047 | inactive: 0.02
27 | GRB10 (UniProt Q13322) | inactive: -0.029 | inactive: -0.034 | inactive: -0.028 | inactive: -0.125 | inactive: 0.029 | inactive: 0.016 | inactive: -0.06 | inactive: 0.021 | inactive: -0.049 | inactive: 0.099
28 | HBD (UniProt P02042) | inactive: 0.094 | inactive: -0.071 | inactive: 0.01 | inactive: 0.068 | inactive: 0.003 | inactive: -0.023 | inactive: 0.026 | inactive: 0.002 | inactive: -0.08 | inactive: -0.099
29 | GSDME (UniProt O60443) | inactive: 0.024 | inactive: 0.035 | inactive: 0.004 | inactive: 0.007 | inactive: 0.08 | inactive: -0.061 | inactive: -0.146 | inactive: -0.078 | inactive: 0.094 | inactive: -0.002
30 | GTF3C1 (UniProt Q12789) | inactive: -0.019 | inactive: -0.019 | inactive: -0.097 | inactive: -0.098 | inactive: 0.02 | inactive: 0.013 | inactive: 0.021 | inactive: 0.04 | inactive: -0.089 | inactive: 0.139

Looked up one by one from the entries so far:
Row | Target | log2 fold change (lapatinib) | log2 fold change (pictilisib) | log2 fold change (crizotinib) | log2 fold change [1] | log2 fold change (duvelisib) | log2 fold change (gandotinib) | log2 fold change (tozasertib) | log2 fold change (doramapimod) | log2 fold change (bafetinib) | log2 fold change [2]
11 | HDDC3 (UniProt Q8N4P3) | inactive: 0.013 | inactive: 0 | inactive: 0.046 | inactive: -0.017 | inactive: -0.008 | inactive: -0.037 | inactive: -0.003 | inactive: 0.023 | inactive: -0.132 | inactive: -0.04
10 | HDAC2 (UniProt Q92769) | inactive: -0.006 | inactive: 0.002 | inactive: 0.057 | inactive: -0.047 | inactive: -0.028 | inactive: 0.018 | inactive: 0.014 | inactive: -0.05 | inactive: -0.021 | inactive: 0.028

Source: the supplement of paper PMC10849652
